# Screening data, single-dose tests

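Growth of Mycobacterium tuberculosis over 3 days (7H9 medium with glucose and tyloxapol); the read-out is not stated. Concentration: 500 µM. Direction is inferred from retests: higher values go with more growth inhibition. Of about 18,000 compounds tested this way, about 1,400 (7.9%) reached 50% or more in at least one test.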

Results are given as percent effect.
The controls that fix the scale are not given in the record; negative values are as filed.
The compounds are a random part of those screened.

O=S(=O)(CCN1CCCC1)c1ccc(Cl)cc1 read 44.44%.
CCCNC(=O)CC(NCCC)C(N)=O (centres undefined) read 9.658%.
NCC1CCN(S(=O)(=O)C2CC2)CC1 read 10.61%.
CSc1nc2sccc2c(=O)n1C read 30.95%.
NS(=O)(=O)NCC1CCCN(CCc2cccs2)C1 (centres undefined) read 48.72%.
CCn1cnnc1CC1CCNC1 (centres undefined) read -7.128%.
CN(CCCOc1ccc(S(C)(=O)=O)cc1)CC(N)=O read 7.864%.
CN(C(=O)CSc1ccccc1Cl)C1CCS(=O)(=O)C1 (centres undefined) read 17.99%.
CC1(C)Oc2ccc(CN)cc2O1 read 2.376%.
O=C(NCc1ccccc1OCC1CC1)c1c[nH]nn1 read 40.66%.
CC(=O)c1cn(C(C)C)nn1 read -9.47%.
Cc1nn(C)c(C)c1C(C)NC(=O)CN1CCCC1 (centres undefined) read 2.677%.
Cc1n[nH]c(SCC(=O)NCCCN2CCOCC2)n1 read 2.059%.
CCOC(=O)NCCC(=O)NCc1ccccn1 read 19.14%.
CC(CN)c1ccc(S(C)(=O)=O)cc1 (centres undefined) read 3.735%.
Cc1ccccc1C(=O)N1CCN(S(C)(=O)=O)[C@@H](C)C1 read 4.337%.
O=C(Cc1cccc(O)c1)NCC1CCNCC1 read 0.2489%.
O=C(Nc1ccccc1)N1CCCOCC1 read 9.201%.
CN(C)S(=O)(=O)NCc1ccc(Cn2ccnc2)cc1 read 29.03%.
Cc1cc(C(=O)N2C[C@H](C3CC3)[C@@H](N)C2)ccc1O read 17.54%.
OC(Cc1ccccc1)c1cccnc1 (centres undefined) read 25.5%.
C[C@@H](O)c1ccc(-n2cncn2)cc1 read 3.531%.
NC1(c2nc(C3CC3)cc(=O)[nH]2)CCCC1 read 51.9%.
CC(C)(O)CN(C(=O)Nc1cnns1)C1CC1 read 6.915%.
CCC(C)(C)NC(=O)CNc1ccc2c(c1)OCCO2 read 83.92%.
CC(C)Oc1ccccc1CN(C)CC(N)=O read 11.91%.
CSc1ccc(C(CN)N(C)C)cc1 (centres undefined) read 82.12%.
CN(CC(=O)NC1CCCCNC1=O)Cc1ccco1 (centres undefined) read -10.12%.
Cc1cnc(CCNC(=O)N(CCO)C2CC2)s1 read 5.062%.
CNC(=O)NCCOc1ccc2c(c1)OCO2 read -4.564%.
O=C(Nc1c[nH]nc1C1CCCNC1)c1ccccc1 (centres undefined) read 3.847%.
CNCCN1CCOC(C)(C)C1 read -5.831%.
C=C(C)CN1CCC(NC(=O)NCC2CCCO2)CC1 (centres undefined) read 2.608%.
O=C(CCCc1cn[nH]c1)N[C@@H]1C[C@@H]2OCC[C@@H]21 read -13.13%.
NCCCc1nnc(N)s1 read 9.272%.
Cc1ccc(C(=O)N(C)C)cc1Oc1ccncc1 read -5.033%.
Cc1ccc(C)c(-n2nnc(C(=O)NC(C)C)c2N)c1 read -1.435%.
CCn1nnnc1NCc1sccc1C read 28.77%.
CC(C)N(CC(N)=O)CC(=O)NCCc1cccs1 read 13.92%.
CC[C@H](N)C(=O)N(Cc1cccc(F)c1)C1CC1 read 29.34%.
CC(C)CS(=O)(=O)N1CCC(N)CC1 read 33.14%.
COCc1nc2n(n1)CCCC2N (centres undefined) read -3.41%.
CC(C)(C)OC(=O)N[C@@H]1CCCN(Cc2ncc[nH]2)C1 read -7.426%.
Cc1cnc(C#N)cc1Cl read 1.723%.

Once more, the final 5:

compound,percent effect
CC[C@H](N)C(=O)N(Cc1cccc(F)c1)C1CC1,29.34%
CC(C)CS(=O)(=O)N1CCC(N)CC1,33.14%
COCc1nc2n(n1)CCCC2N (centres undefined),-3.41%
CC(C)(C)OC(=O)N[C@@H]1CCCN(Cc2ncc[nH]2)C1,-7.426%
Cc1cnc(C#N)cc1Cl,1.723%

From ChEMBL document CHEMBL3988442, “University of Dundee, Small-Polar-MMV Screening Library” (2021).